Values quoted from earlier work as cited in US20090247603A1, “Stabilized pharmaceutical compositions comprising an HMG-CoA reductase inhibitor” (Orbus Pharma, Inc., priority 2005, published 2009).

Details: after oral administration

CC(C)c1c(C(=O)Nc2ccccc2)c(-c2ccccc2)c(-c2ccc(F)cc2)n1CC[C@@H](O)C[C@@H](O)CC(=O)[O-].CC(C)c1c(C(=O)Nc2ccccc2)c(-c2ccccc2)c(-c2ccc(F)cc2)n1CC[C@@H](O)C[C@@H](O)CC(=O)[O-].[Ca+2] (relative stereo) [atorvastatin calcium, (R—(R*,R*))-2-(4-fluorophenyl)-[beta],[delta]-dihydroxy-5-(1-methylethyl)-3-phenyl-4((phenylamino)carbonyl)-1H-pyrole-1-heptanoic acid hemi calcium salt]
time of maximum plasma concentrations: 1 to 2 h
